Results are given in words; binding and its absence hold for the method and conditions named. Binding seen in cells or lysates may run through a third protein. Some binding calls cover weakened binding; strength is not graded here. For some of these results: Where a sequence is shown, tags or fusion partners need not be part of it.
How the values were obtained:
[1] = biological target: T1, Checkpoint suppressor 1 (CHES1), endogenous (human (endogenous in MDA-MB-231, BT549, MCF7)) (UniProt O00409); assay: co-IP; endogenous proteins in lysates of TNBC cells (Fig. 5E: MDA-MB-231); Protein A&G magnetic beads
T1 sequence: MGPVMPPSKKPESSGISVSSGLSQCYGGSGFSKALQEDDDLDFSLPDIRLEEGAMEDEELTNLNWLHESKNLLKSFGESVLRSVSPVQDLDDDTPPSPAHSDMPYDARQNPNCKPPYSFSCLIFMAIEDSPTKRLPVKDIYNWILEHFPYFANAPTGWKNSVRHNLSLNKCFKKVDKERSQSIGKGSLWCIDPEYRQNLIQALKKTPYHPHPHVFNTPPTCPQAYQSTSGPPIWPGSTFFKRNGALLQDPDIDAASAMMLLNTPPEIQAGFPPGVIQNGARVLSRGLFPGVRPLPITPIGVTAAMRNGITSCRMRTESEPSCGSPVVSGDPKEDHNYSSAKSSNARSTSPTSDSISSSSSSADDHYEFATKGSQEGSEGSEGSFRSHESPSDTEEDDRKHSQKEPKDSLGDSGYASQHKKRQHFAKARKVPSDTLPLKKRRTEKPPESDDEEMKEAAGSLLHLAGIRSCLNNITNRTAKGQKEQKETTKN

Sequences of proteins named here, by UniProt entry; tags and fusion partners are left off.
UniProt Q09472: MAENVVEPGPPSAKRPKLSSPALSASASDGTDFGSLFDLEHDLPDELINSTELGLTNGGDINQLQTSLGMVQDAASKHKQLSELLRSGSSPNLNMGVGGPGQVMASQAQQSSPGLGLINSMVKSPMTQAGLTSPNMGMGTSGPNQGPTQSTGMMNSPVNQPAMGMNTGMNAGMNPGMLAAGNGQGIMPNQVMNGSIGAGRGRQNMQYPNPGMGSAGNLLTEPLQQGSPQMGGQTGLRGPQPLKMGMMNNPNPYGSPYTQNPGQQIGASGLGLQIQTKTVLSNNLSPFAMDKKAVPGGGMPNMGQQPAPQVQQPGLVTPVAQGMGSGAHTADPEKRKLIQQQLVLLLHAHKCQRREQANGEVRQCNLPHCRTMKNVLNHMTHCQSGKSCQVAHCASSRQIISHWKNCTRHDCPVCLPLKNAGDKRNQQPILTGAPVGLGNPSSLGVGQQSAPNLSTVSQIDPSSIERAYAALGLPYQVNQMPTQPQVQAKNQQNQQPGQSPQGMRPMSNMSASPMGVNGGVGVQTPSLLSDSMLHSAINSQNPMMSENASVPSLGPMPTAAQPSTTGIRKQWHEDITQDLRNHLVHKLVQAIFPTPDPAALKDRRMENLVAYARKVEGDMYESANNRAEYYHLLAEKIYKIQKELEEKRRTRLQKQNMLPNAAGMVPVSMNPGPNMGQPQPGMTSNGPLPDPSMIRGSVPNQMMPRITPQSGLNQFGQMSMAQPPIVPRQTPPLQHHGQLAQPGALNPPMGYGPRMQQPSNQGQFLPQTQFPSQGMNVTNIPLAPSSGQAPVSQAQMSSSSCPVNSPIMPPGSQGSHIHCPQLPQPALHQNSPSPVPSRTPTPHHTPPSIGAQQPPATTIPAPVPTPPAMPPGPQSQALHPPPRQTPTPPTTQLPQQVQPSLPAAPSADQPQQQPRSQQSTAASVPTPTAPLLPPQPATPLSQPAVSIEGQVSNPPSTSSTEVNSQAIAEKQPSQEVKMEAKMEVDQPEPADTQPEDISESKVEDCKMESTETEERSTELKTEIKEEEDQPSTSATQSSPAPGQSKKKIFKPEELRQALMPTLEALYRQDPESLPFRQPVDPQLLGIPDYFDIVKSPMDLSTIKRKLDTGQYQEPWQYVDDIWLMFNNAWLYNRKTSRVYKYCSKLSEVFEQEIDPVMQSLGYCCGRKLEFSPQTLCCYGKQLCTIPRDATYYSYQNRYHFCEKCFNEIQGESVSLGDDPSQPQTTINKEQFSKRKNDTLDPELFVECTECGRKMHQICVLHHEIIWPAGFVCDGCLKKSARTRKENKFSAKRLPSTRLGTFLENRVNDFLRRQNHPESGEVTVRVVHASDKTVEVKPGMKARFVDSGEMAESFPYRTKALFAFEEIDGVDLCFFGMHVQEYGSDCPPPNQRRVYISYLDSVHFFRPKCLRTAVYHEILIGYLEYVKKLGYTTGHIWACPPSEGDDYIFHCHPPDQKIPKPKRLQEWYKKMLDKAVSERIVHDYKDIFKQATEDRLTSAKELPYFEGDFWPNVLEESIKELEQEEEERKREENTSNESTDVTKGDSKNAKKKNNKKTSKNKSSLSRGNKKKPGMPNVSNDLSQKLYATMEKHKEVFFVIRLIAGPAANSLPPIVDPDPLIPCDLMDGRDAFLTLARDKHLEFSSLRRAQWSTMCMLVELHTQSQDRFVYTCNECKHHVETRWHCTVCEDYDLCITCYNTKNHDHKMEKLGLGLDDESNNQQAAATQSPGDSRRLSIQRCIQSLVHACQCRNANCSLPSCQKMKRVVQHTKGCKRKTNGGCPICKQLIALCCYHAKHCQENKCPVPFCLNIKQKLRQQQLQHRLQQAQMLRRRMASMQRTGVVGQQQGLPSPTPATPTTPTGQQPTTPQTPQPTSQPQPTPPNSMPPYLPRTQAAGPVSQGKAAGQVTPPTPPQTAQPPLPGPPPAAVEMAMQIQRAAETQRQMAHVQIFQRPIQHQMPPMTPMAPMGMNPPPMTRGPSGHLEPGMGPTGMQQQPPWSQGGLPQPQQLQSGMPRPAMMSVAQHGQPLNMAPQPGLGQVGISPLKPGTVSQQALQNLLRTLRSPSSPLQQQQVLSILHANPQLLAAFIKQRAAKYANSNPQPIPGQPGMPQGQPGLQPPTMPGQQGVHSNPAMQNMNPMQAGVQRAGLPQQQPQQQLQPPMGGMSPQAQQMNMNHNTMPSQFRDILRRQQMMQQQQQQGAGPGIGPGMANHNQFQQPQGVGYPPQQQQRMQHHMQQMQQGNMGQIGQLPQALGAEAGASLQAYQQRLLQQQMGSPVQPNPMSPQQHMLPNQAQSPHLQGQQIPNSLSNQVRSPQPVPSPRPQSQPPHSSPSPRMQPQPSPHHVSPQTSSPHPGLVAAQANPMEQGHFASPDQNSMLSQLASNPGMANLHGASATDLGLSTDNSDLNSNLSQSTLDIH
UniProt Q13547: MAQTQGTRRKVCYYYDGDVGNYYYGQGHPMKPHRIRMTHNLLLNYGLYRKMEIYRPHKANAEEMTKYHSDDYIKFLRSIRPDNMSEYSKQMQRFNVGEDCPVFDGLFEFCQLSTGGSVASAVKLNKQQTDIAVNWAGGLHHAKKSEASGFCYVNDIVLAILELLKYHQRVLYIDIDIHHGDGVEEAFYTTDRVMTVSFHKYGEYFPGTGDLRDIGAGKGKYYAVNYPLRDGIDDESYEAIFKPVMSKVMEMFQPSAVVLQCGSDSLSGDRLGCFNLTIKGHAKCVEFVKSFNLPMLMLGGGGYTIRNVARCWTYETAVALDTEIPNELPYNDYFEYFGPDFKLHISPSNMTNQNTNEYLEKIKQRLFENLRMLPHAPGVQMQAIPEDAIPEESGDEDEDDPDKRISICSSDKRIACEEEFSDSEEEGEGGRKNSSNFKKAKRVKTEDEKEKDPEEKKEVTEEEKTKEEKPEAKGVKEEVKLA

Flag-CHES1 wild type = biological target: T2, Flag-CHES1 wild type (UniProt O00409); assay: co-IP; exogenous CHES1 WT or KR mutant precipitated from cell lysate, p300 detected by blot; cell line not stated
T2 sequence: T1 sequence

[2] = biological target: T1, Checkpoint suppressor 1 (CHES1), endogenous (human (endogenous in MDA-MB-231, BT549, MCF7)); assay: co-IP; endogenous proteins in lysate of MCF7 cells (ERα+); Protein A&G magnetic beads

Substance	binding [1]	binding (Flag-CHES1 wild type)	binding [2]
p300, endogenous (from UniProt Q09472 1-2414) (enzyme)	binds	–	–
p300 (in the co-IP with Flag-CHES1 WT and KR) (from UniProt Q09472 1-2414) (enzyme)	–	binds	–
HDAC1, endogenous (from UniProt Q13547 1-482) (enzyme)	no binding (condition: in TNBC cells (MDA-MB-231))	–	binds
